Results published in PubChem BioAssay AID493014 (National Center for Advancing Translational Sciences (NCATS), 2011).
The list shows a part of the results. These are further read-outs of the screen, such as a control signal, another cell line or another target. No call is given for them. The list favours compounds with an active or inconclusive main result. Words in brackets tell the shape of the fitted curve; partial curves, single points and poor fits give uncertain potencies.

Test: qHTS Assay to Find Inhibitors of Chronic Active B-Cell Receptor Signaling
Settings: ABC-DLBCL IkBa-CBG/CBR reporter, luminescence ratio (green luciferase fused to IkBa over red control in TMD8 lymphoma cells), 4 h
In short: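 Cell line TMD8 (human ABC DLBCL), stably expressing tet-inducible CBG68-IkBa fusion and CBR; IMDM/0.5% FBS; cpd up to 46 uM; dox induction, 4 h, 37C/5% CO2; dual luminescence; green/red ratio; MG132 control.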

[1] = measured here: CBR red luminescence, cell number
[2] = measured here: IkBa-CBG green luminescence

| SMILES | AC50 [1] | AC50 [2] |
| --- | --- | --- |
| COc1ccc(S(=O)(=O)N2CCOC2CNC(=O)C(=O)NCc2ccncc2)cc1OC (stereo not drawn) | 17.8 µM [rising, partial curve, poor fit] |  |
| CCc1ccc(C(C(=O)NC2CCCC2)N(C(=O)c2csnn2)C2CC2)cc1 (stereo not drawn) | 0.0891 µM [rising, full curve, poor fit] |  |
| CC(=O)OCCCn1c(C)[n+](C)c2cc(Cl)c(Cl)cc21 | 3.98 µM [rising, full curve, poor fit] |  |
| Cc1ccccc1-c1ncc(CN2CCN(C3CCCCC3)C(CCO)C2)cn1 (stereo not drawn) | 12.6 µM [rising, partial curve, poor fit] |  |
| C=CCN(CC=C)C(=S)NC(=O)c1ccc(-c2ccccc2)cc1 | 29.1 µM [rising, single point] |  |
| C/C(CC(=O)Nc1ccc(C)c(Cl)c1)=N\NC(=O)c1ccccn1 | 7.94 µM [falling, partial curve] |  |
| Cc1ccccc1OCC(=O)Nc1cccc(NC(=O)c2ccco2)c1 | 0.562 µM [falling, full curve, poor fit] |  |
| O=C(O)CCc1cccnc1 | 12.6 µM [falling, partial curve] |  |
| COc1ccc(/C=C/c2noc(-c3ccccc3OC(C)=O)n2)cc1 | 7.94 µM [falling, partial curve] |  |
| O=C(Nc1ccc([N+](=O)[O-])cn1)C1CCCCC1 | 18.4 µM [falling, partial curve] |  |
| COc1cccc(Nc2nc(-c3cccs3)nc3ccccc23)c1 |  | 16.4 µM [rising, partial curve, poor fit] |
| COc1cccc(/C=N/NC(=O)N/N=C/c2cccc(OC)c2O)c1O | 8.91 µM [falling, partial curve, poor fit] |  |
| O=C(Nc1ccccc1)OCCOc1ccc(Br)cc1 | 10 µM [rising, partial curve] |  |
| CC(C)N(C(=O)c1ccc(-c2ccccc2F)cc1)C(C)C | 7.08 µM [falling, partial curve, poor fit] |  |
| O=C(Nc1ccc(SC(F)F)cc1)C1=CC=CN2CCS(=O)(=O)N=C12 | 0.411 µM [rising, full curve, poor fit] |  |
| Cc1ccccc1-c1cc(C(=O)NCc2ccco2)nn1CC1CC(c2cccc([N+](=O)[O-])c2)=NO1 (stereo not drawn) | 25.9 µM [falling, single point] |  |
| O=C(Nc1nc2cc3c(cc2s1)OCO3)c1ccco1 | 1 µM [falling, full curve, poor fit] |  |
| O=C(CN1C=NS(=O)(=O)c2ccccc21)Nc1ccc(Br)cc1 | 3.55 µM [falling, partial curve, poor fit] |  |
| OC(CN1CCN(c2ccc(C(F)(F)F)cn2)CC1)c1ccccc1 (stereo not drawn) | 1.26 µM [rising, full curve, poor fit] |  |
| O=[N+]([O-])c1ccc(-c2cn(-c3ccccc3)c(=S)[nH]2)cc1 | 9.2 µM [rising, partial curve, poor fit] |  |
| O=S(=O)(c1ccccc1)c1cccc(S(=O)(=O)N2CCCCC2)c1 | 0.259 µM [falling, full curve, poor fit] |  |

| SMILES | AC50 [1] | AC50 [2] |
| --- | --- | --- |
| O=C(O)CSc1cc(NS(=O)(=O)c2cccc([N+](=O)[O-])c2)c2ccccc2c1O | 28.2 µM [falling, single point] |  |
| O=C(Nc1ccc(Cl)cc1)c1ccc2ncsc2c1 | 35.5 µM [falling, single point] |  |
| CC(CC(=O)Nc1nc2ccccc2[nH]1)c1ccccc1 (stereo not drawn) | 3.66 µM [falling, partial curve, poor fit] |  |
| CCc1ccc2nc(N=C(N)N)nc(C)c2c1 | 0.501 µM [rising, full curve, poor fit] |  |
| Cc1ccc(NS(=O)(=O)c2ccccc2)c2c1CC(C)(C)O2 | 29.1 µM [rising, single point] |  |
| NCCCCCc1nnc(SCc2ccc(Cl)cc2Cl)o1 | 11.2 µM [falling, single point] |  |
| N#Cc1cc(-c2ccccc2)[nH]c1-c1nccc2ccccc12 | 35.5 µM [falling, single point] |  |
| N#CN=C1SCCS1 | 28.2 µM [rising, partial curve, poor fit] |  |
| NCCCC[C@H]1CNC(=S)N1CCc1cccc(F)c1 | 4.47 µM [falling, partial curve, poor fit] |  |
| CC(C)CC(=O)Nc1nc2ccc(S(C)(=O)=O)cc2s1 | 35.5 µM [rising, single point] |  |
| O=C(Nc1nncs1)c1cccc(S(=O)(=O)N2CCCC2)c1 | 16.4 µM [rising, single point] |  |
| Cc1ncsc1CCOC(=O)c1ccccc1 | 11.2 µM [rising, partial curve, poor fit] |  |
| CC(C(=O)NC1=NCCS1)(C(F)(F)F)C(F)(F)F | 0.366 µM [falling, full curve, poor fit] |  |
| CCc1nnc(NC(=O)C2Cc3ccccc3CN2S(=O)(=O)c2ccc(C)cc2)s1 (stereo not drawn) | 35.5 µM [falling, single point] |  |
| Cc1ccc(CN2C(=O)CSC2c2cccnc2)cc1 (stereo not drawn) | 6.31 µM [rising, single point] |  |
| CCOC(=O)Cc1csc(NC(=O)c2ccc(N3CCOCC3)cc2[N+](=O)[O-])n1 | 25.9 µM [falling, partial curve] |  |
| CC(=O)N(C(C)=O)C1=C(C#N)C2(CCCCC2)Cc2ccccc21 | 17.8 µM [falling, single point] |  |
| O=[N+]([O-])c1ccc(-n2ccnc2)cc1 | 35.5 µM [rising, single point] |  |
| Cc1ccnc(SCC(=O)Nc2sc3c(c2C#N)CCCC3)n1 | 3.55 µM [rising, partial curve, poor fit] |  |
| Cc1cccc(NC(=O)CN(c2ccc(F)cc2)S(C)(=O)=O)c1 | 8.91 µM [falling, partial curve, poor fit] | 10 µM [rising, partial curve, poor fit] |
| CCC(=O)OCC(=O)N=c1sccn1Cc1ccc(C)cc1 | 14.1 µM [falling, single point] |  |

Exported as labelled records: part of the list above
COc1cccc(Nc2nc(-c3cccs3)nc3ccccc23)c1
  AC50 [2]: 16.4 µM [rising, partial curve, poor fit]
CC(CC(=O)Nc1nc2ccccc2[nH]1)c1ccccc1 (stereo not drawn)
  AC50 [1]: 3.66 µM [falling, partial curve, poor fit]
N#Cc1cc(-c2ccccc2)[nH]c1-c1nccc2ccccc12
  AC50 [1]: 35.5 µM [falling, single point]
